Laboratory results as given in patent publication US20190359999A1.
No constants are given. Whether binding was seen depends on the method and setting. Some binding calls cover weakened binding; strength is not graded here.

Sequences of proteins named here, by UniProt entry; tags and fusion partners are left off. A change or cut given only in a name is not applied to a line headed by its entry. Residues count along the entry.
UniProt Q9CAJ0, residues 23-511: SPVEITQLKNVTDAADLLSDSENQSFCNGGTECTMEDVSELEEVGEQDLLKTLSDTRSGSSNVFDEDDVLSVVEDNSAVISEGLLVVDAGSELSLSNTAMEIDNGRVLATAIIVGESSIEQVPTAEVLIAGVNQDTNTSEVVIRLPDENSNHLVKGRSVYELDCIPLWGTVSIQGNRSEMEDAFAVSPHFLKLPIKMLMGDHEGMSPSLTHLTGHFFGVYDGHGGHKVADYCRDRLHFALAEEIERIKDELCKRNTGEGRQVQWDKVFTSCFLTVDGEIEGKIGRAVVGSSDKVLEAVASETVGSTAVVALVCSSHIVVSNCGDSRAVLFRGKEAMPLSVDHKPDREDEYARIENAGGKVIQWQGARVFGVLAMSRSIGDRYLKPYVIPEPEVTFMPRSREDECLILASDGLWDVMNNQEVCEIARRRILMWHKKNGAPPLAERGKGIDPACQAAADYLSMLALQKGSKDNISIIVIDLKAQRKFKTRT
UniProt O49686: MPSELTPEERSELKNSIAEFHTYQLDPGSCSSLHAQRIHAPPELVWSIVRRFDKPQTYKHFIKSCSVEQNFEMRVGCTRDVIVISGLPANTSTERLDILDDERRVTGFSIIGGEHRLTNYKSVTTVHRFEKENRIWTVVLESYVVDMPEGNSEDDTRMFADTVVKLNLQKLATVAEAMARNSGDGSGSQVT

target: HAB1 (Homology to ABI1), type 2 protein phosphatase (PP2C) (UniProt Q9CAJ0); test: yeast two-hybrid, ABA-dependent

Substance	binding
wild-type PYR1 (from UniProt O49686 1-191) (receptor)	binds

target: HAB1 (Homology to ABI1), type 2 protein phosphatase (PP2C) (UniProt Q9CAJ0); test: yeast two-hybrid with HAB1, X-gal staining at low ABA; grade = strength of hypersensitivity

Substance	binding
PYR1 K170E (from UniProt O49686 1-191) (receptor)	binds
PYR1 K170V (from UniProt O49686 1-191) (receptor)	binds
PYR1 K170D (from UniProt O49686 1-191) (receptor)	binds
PYR1 I82F (from UniProt O49686 1-191) (receptor)	binds
PYR1 K170C (from UniProt O49686 1-191) (receptor)	binds
PYR1 L166Q (from UniProt O49686 1-191) (receptor)	binds
PYR1 K170T (from UniProt O49686 1-191) (receptor)	binds
PYR1 K170M (from UniProt O49686 1-191) (receptor)	binds
PYR1 I82S (from UniProt O49686 1-191) (receptor)	binds
PYR1 K170I (from UniProt O49686 1-191) (receptor)	binds
PYR1 M158N (from UniProt O49686 1-191) (receptor)	binds
PYR1 L166M (from UniProt O49686 1-191) (receptor)	binds
PYR1 L166T (from UniProt O49686 1-191) (receptor)	binds
PYR1 D154M (from UniProt O49686 1-191) (receptor)	binds
PYR1 L166P (from UniProt O49686 1-191) (receptor)	binds
PYR1 K63D (from UniProt O49686 1-191) (receptor)	binds
PYR1 L166E (from UniProt O49686 1-191) (receptor)	binds
PYR1 L166F (from UniProt O49686 1-191) (receptor)	binds
PYR1 I84T (from UniProt O49686 1-191) (receptor)	binds
PYR1 K170G (from UniProt O49686 1-191) (receptor)	binds
PYR1 I82K (from UniProt O49686 1-191) (receptor)	binds
PYR1 M158I (from UniProt O49686 1-191) (receptor)	binds
PYR1 I84N (from UniProt O49686 1-191) (receptor)	binds

Substance	binding
PYR1 K170F (from UniProt O49686 1-191) (receptor)	binds
PYR1 L166W (from UniProt O49686 1-191) (receptor)	binds
PYR1 K170H (from UniProt O49686 1-191) (receptor)	binds
PYR1 D154Q (from UniProt O49686 1-191) (receptor)	binds
PYR1 D154G (from UniProt O49686 1-191) (receptor)	binds
PYR1 K170N (from UniProt O49686 1-191) (receptor)	binds
PYR1 T162H (from UniProt O49686 1-191) (receptor)	binds
PYR1 K170S (from UniProt O49686 1-191) (receptor)	binds
PYR1 T162L (from UniProt O49686 1-191) (receptor)	binds
PYR1 K170Y (from UniProt O49686 1-191) (receptor)	binds
PYR1 L166G (from UniProt O49686 1-191) (receptor)	binds
PYR1 L166K (from UniProt O49686 1-191) (receptor)	binds
PYR1 D154W (from UniProt O49686 1-191) (receptor)	binds
PYR1 D154K (from UniProt O49686 1-191) (receptor)	binds
PYR1 K170Q (from UniProt O49686 1-191) (receptor)	binds
PYR1 M158S (from UniProt O49686 1-191) (receptor)	binds
PYR1 M158G (from UniProt O49686 1-191) (receptor)	binds
PYR1 T162W (from UniProt O49686 1-191) (receptor)	binds
PYR1 D154F (from UniProt O49686 1-191) (receptor)	binds
PYR1 M158A (from UniProt O49686 1-191) (receptor)	binds
PYR1 K170R (from UniProt O49686 1-191) (receptor)	binds
PYR1 M158V (from UniProt O49686 1-191) (receptor)	binds
PYR1 L166R (from UniProt O49686 1-191) (receptor)	binds

Substance	binding
PYR1 I84D (from UniProt O49686 1-191) (receptor)	binds
PYR1 M158W (from UniProt O49686 1-191) (receptor)	binds
PYR1 M158D (from UniProt O49686 1-191) (receptor)	binds
PYR1 L166N (from UniProt O49686 1-191) (receptor)	binds
PYR1 T162M (from UniProt O49686 1-191) (receptor)	binds
PYR1 K63Q (from UniProt O49686 1-191) (receptor)	binds
PYR1 I82A (from UniProt O49686 1-191) (receptor)	binds
PYR1 K170A (from UniProt O49686 1-191) (receptor)	binds
PYR1 L166A (from UniProt O49686 1-191) (receptor)	binds
PYR1 D154H (from UniProt O49686 1-191) (receptor)	binds
PYR1 T162K (from UniProt O49686 1-191) (receptor)	binds
PYR1 L166S (from UniProt O49686 1-191) (receptor)	binds
PYR1 I84S (from UniProt O49686 1-191) (receptor)	binds
PYR1 I84A (from UniProt O49686 1-191) (receptor)	binds
PYR1 I84R (from UniProt O49686 1-191) (receptor)	binds
PYR1 L166Y (from UniProt O49686 1-191) (receptor)	binds
PYR1 M158H (from UniProt O49686 1-191) (receptor)	binds
PYR1 D154R (from UniProt O49686 1-191) (receptor)	binds
PYR1 T162Y (from UniProt O49686 1-191) (receptor)	binds
PYR1 L166H (from UniProt O49686 1-191) (receptor)	binds
PYR1 K63E (from UniProt O49686 1-191) (receptor)	binds
